According to PubChem BioAssay AID1347076 (National Center for Advancing Translational Sciences (NCATS), 2019):
The whole screen tested about 400,000 compounds, of which about 13,000 (3.2%) were called active. This list was built around the results that the source calls inconclusive (neither active nor inactive); the mix of calls is not that of the screen. Calls come from the whole dose curve; as a rule, active = well fitted cell-killing curve with a large enough effect; inconclusive = small, poorly fitted or top-dose-only effect, or effect the other way; inactive = flat fitted curve, though single readings scatter. A potency beside an inconclusive call is a rough fit, not a confirmed value.

Experiment: qHTS assay for MDR1-selective chemotherapeutics: Primary screen using the drug-selected MDR subline cells KB-V1; note: nearly all actives have a fitted effect of over 60% in size
Details: KB-V1 MDR cells viability, CellTiter-Glo, 72 h; activity change, negative = cytotoxicity: at 46.1 µM (top of the series)
Summary of the method: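 KB-V1 MDR subline cells in DMEM (phenol-red free, 10% FBS) exposed to compounds in qHTS concentration series for 72 h at 37 degrees C. Viability read by CellTiter-Glo luminescence; concentration-effect curves fitted after normalization and correction.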
% is set by controls: 0 for no effect and ±100 for the full control effect; potency is the fitted concentration of half-maximal effect.

| Compound | Potency | activity change, negative = cytotoxicity |
| --- | --- | --- |
| NC(=O)c1cc(S(=O)(=O)Nc2ccc(OC(F)(F)F)cc2)cs1 | inconclusive: 18.4 µM [rising, single point] | – |
| COc1ccc(-c2nc(SCC(=O)NC3CCCC3)c(-c3ccc(OC)cc3)[nH]2)cc1 | inactive | – |
| Cn1cc(/C=N\O)nc2c(=O)n(-c3ccccc3)c(=O)nc1-2 | inactive | – |
| COc1ccccc1N1CCN(C(=O)c2cc3c(=O)n(C)c4ccccc4c3s2)CC1 | inconclusive: 1.16 µM [cytotoxic, full curve, poor fit] | – |
| COc1ccc(-c2ccc3ccccc3n2)cc1 | inactive | – |
| COc1ccc(/C=N/NC(=O)c2ccc(Cl)cc2Cl)cc1COC(C)=O | inconclusive: 29.1 µM [cytotoxic, single point] | – |
| COc1ccccc1-c1noc(-c2ccc(N3CCOCC3)c([N+](=O)[O-])c2)n1 | inactive | – |
| Cc1ccc(C(C)(C)C)c(OCCOCCN2CCCC2)c1 | inconclusive: 29.1 µM [cytotoxic, partial curve, poor fit] | – |
| COCCCN(Cc1ccco1)C(=O)c1cc2c(s1)-c1ccccc1OC2 | active: 10.3 µM | – |
| Cc1noc(C)c1COc1ccc(CC(=O)NCc2ccccc2)cc1 | inconclusive: 2.06 µM [cytotoxic, partial curve, poor fit] | – |
| CCOC(=O)C1CCCN(C(=O)c2c(-c3ccccc3)noc2C)CC1 (stereo not given) | inconclusive: 20.6 µM [cytotoxic, single point] | – |
| COc1ccc(/C=C/c2nnc(NC(=O)CSc3ccc(Cl)cc3)s2)cc1 | inactive | – |
| COc1cc(C#N)ccc1OCC(=O)Nc1cccc(S(=O)(=O)N(C)c2ccccc2)c1 | inconclusive: 20.6 µM [cytotoxic, single point] | – |
| CCN(Cc1ccccc1)C(=O)Cc1c[nH]c2ccccc12 | inactive | – |
| CCN(CC(=O)NCc1ccc(Cl)cc1)C(=O)c1cc2ccccc2o1 | inconclusive: 5.17 µM [cytotoxic, full curve] | – |
| Cc1nn(-c2ccccc2)c(N)c1Sc1cccc([N+](=O)[O-])c1 | inconclusive: 29.1 µM [cytotoxic, single point] | – |
| CN(C)C(=S)N=c1ssc(=S)n1Cc1ccco1 | active: 4.11 µM | – |
| CCCNC(=O)CCNC(=O)c1ccc(C(C)(C)C)cc1 | inconclusive: 20.6 µM [cytotoxic, single point] | – |
| COC(=O)C1CC(O)CN1S(=O)(=O)c1cccs1 (stereo not given) | inconclusive: 29.1 µM [rising, single point] | – |
| Cc1ccnc(NC(=O)C2CCN(S(=O)(=O)c3cccc(C(F)(F)F)c3)CC2)c1 | inconclusive: 9.2 µM [cytotoxic, partial curve, poor fit] | – |
| COc1ccc(C(=O)Nc2ccc(-n3nncc3C(C)(C)C)cc2)cc1 | inconclusive: 16.4 µM [cytotoxic, partial curve, poor fit] | – |
| COc1ccc(-n2ncc3c2CC(C)(C)CC3NC(=O)CCC2=NNC(=O)CC2)cc1 (stereo not given) | inconclusive: 29.1 µM [rising, single point] | – |
| O=C(O)c1cc(S(=O)(=O)N2CCCc3ccccc32)ccc1Cl | inconclusive: 2.59 µM [rising, full curve] | – |
| Cc1cccc(NC(=O)C(C)OC(=O)c2ccccc2NS(=O)(=O)c2cc(C)c(C)c([N+](=O)[O-])c2)c1 (stereo not given) | inconclusive: 29.1 µM [cytotoxic, single point] | – |

| Compound | Potency | activity change, negative = cytotoxicity |
| --- | --- | --- |
| O=C(COC(=O)c1ccccc1NCCO)NCC1CCCCC1 | – | inconclusive: -13.5% |
| CCn1c2c(c(=N)c3c1CCC3)CCC2 | inactive | – |
| CC(C)C(C)NC(=O)CSc1nc2scc(-c3ccco3)c2c(=O)n1-c1ccccc1 (stereo not given) | inconclusive: 10.3 µM [cytotoxic, partial curve] | – |
| CCCCn1c(N)c(NCc2ccccc2)c(=O)[nH]c1=O | inconclusive: 9.2 µM [rising, partial curve, poor fit] | – |
| CCc1nc(SCC(=O)N2c3ccccc3Sc3ccccc32)c2ccccc2n1 | active: 8.2 µM | – |
| COC(=O)[C@@]1(Cc2ccc(F)cc2)[C@H]2c3cc(C(=O)N(C)C)n(Cc4c(CO)[nH]cc(C)c4=O)c3C[C@H]2CN1C(=O)c1ccccc1 | inconclusive: 11.6 µM [rising, single point] | – |
| COc1ccc(NC(=O)c2cc3c(Cl)nc4ccccc4c3s2)cc1OC | inconclusive: 5.8 µM [cytotoxic, partial curve] | – |
| COC(=O)C1C(=O)c2c([nH]c(C(=O)OC3CCCC3C)c2C)CC1C (stereo not given) | inconclusive: 23.1 µM [cytotoxic, single point] | – |
| C=CCN(CC=C)Cc1nc(N)nc(Nc2ccccc2C)n1 | inactive | – |
| CC1(C(=O)Nc2ccc3c(c2)OCCO3)CN(S(C)(=O)=O)CC(=O)N1CCc1ccccc1F (stereo not given) | inactive | – |
| COCCNc1nc(-c2ccccc2CO)c2sc(-c3ccccc3)cc2n1 | active: 20.6 µM | – |
| Cn1cccc1-c1cc(C(=O)N/N=C/c2ccc(Cl)cc2)[nH]n1 | inconclusive: 29.1 µM [cytotoxic, single point] | – |
| NS(=O)(=O)c1ccc(NC(=O)c2cnn3c2NC(=C2CC2)C=C3C(F)F)cc1 | inconclusive: 16.4 µM [rising, partial curve, poor fit] | – |
| CCOc1ccc(NC(=O)CCN2CCN(S(=O)(=O)c3cc(Cl)ccc3OC)CC2)cc1 | inconclusive: 20.6 µM [cytotoxic, single point] | – |
| CC(=O)OCc1cc(=O)n2nc(C3CCCCC3)sc2n1 | inactive | – |
| COc1ccc(-c2nnc(SCc3cc(C)ccc3C)n2N)cc1 | inconclusive: 8.91 µM [cytotoxic, partial curve, poor fit] | – |
| COc1ccc(-c2c(-c3cc(OC)cc(OC)c3)n(C)c3ccc(-c4cnc(OC)nc4)cc23)cc1 | inactive | – |
| c1ccc(C2CSc3ccccc3N2)cc1 (stereo not given) | inactive | – |
| Cc1cc(N2CCOCC2)c(F)cc1C(=O)c1ccccc1 | active: 18.4 µM | – |
| COc1ccc(C(=O)/C=C/C(=O)N(Cc2ccc(F)cc2)C(C(=O)NC2CCCCC2)c2ccncc2)c(O)c1 (stereo not given) | active: 0.731 µM | – |
| COc1ccc(C)c2sc(NC(=O)c3ccc(S(=O)(=O)N4CCCCC4)cc3)nc12 | inconclusive: 25.9 µM [rising, partial curve, poor fit] | – |
| O=[N+]([O-])c1ccccc1/C=N/N1CCN(c2ccc(Cl)cc2)CC1 | active: 10.3 µM | – |
| CCCC(=O)Nc1nc2ccc(NC(=O)c3c(F)c(F)c(OC)c(F)c3F)cc2s1 | inconclusive: 1.16 µM [cytotoxic, full curve, poor fit] | – |
| CNC(=S)NNC(=O)c1cccc(N(C)C)c1 | inconclusive: 20.6 µM [cytotoxic, single point] | – |

Grouped by structure: the compounds so far containing a CF3 group (two)

| Compound | Potency | activity change, negative = cytotoxicity |
| --- | --- | --- |
| NC(=O)c1cc(S(=O)(=O)Nc2ccc(OC(F)(F)F)cc2)cs1 | inconclusive: 18.4 µM [rising, single point] | – |
| Cc1ccnc(NC(=O)C2CCN(S(=O)(=O)c3cccc(C(F)(F)F)c3)CC2)c1 | inconclusive: 9.2 µM [cytotoxic, partial curve, poor fit] | – |

Next records.

| Compound | Potency | activity change, negative = cytotoxicity |
| --- | --- | --- |
| O=C(c1ccccc1)c1nn(-c2ccccc2)c2nnc(Cc3ccccc3)c(=O)n12 | inconclusive: 10.3 µM [cytotoxic, partial curve, poor fit] | – |
| O=C(c1ccccc1)c1cc([N+](=O)[O-])ccc1N1CCOCC1 | active: 1.16 µM | – |
| CCN(CC)CCCNC(=O)c1c(O)c2cc(F)cc3c2n(c1=O)C(C)CC3 (stereo not given) | inconclusive: 29.1 µM [cytotoxic, partial curve, poor fit] | – |
| Cc1cc(N2CCN(c3ccc(F)cc3)CC2)nc2cc(O)ccc12 | inconclusive: 11.6 µM [cytotoxic, partial curve, poor fit] | – |
| Cc1nc(S(=O)(=O)N2CCN(c3ccc(Cl)cc3)CC2)cn1C | inactive | – |
| CCCOc1ccc(/C=C/C(=O)Nc2sc(C)c(C)c2C(=O)OCC)cc1OC | inactive | – |
| Cc1sc2ncnc(NCC(C)(C)N3CCOCC3)c2c1C | active: 4.11 µM | – |
| CCCN1CCN(CCCNC(=O)c2cc3c(Cl)nc4ccccc4c3s2)CC1 | inconclusive: 29.1 µM [cytotoxic, partial curve, poor fit] | – |
| CCCCn1c(SCc2cccc([N+](=O)[O-])c2)nc2ccsc2c1=O | active: 2.31 µM | – |
| CCCCN1CC(COCc2ccccc2)Oc2cccc(NCc3ccc(OC)cc3)c2S1(=O)=O (stereo not given) | inactive | – |
| CC(C)Cn1c(SCC(=O)NC(=O)NC2CCCC2)nc2ccccc21 | inconclusive: 20.6 µM [cytotoxic, partial curve, poor fit] | – |
| Cc1ccc(C(NC(=O)C2CCCCC2)c2c(O)ccc3ccccc23)cc1 (stereo not given) | inconclusive: 23.1 µM [cytotoxic, partial curve] | – |
| CC(=O)OCC(=O)Nc1ccc(C(C)=O)cc1 | inconclusive: 20.6 µM [rising, single point] | – |
| COC(=O)C1=CN(c2ccc(F)cc2)C(N)=C(C#N)C1c1cccc(F)c1 (stereo not given) | active: 8.2 µM | – |
| COc1ccc(NC2=Nc3ccccc3CC2)cc1 | inconclusive: 18.4 µM [cytotoxic, single point] | – |
| CC1CCCC(C)N1C(=O)Cn1c(SCC(=O)Nc2ccc3c(c2)OCO3)nc2ccccc21 (stereo not given) | inconclusive: 20.6 µM [cytotoxic, partial curve] | – |
| CCc1cc(=O)oc2c(C)c(OCC(=O)N3CCC[C@@H]3C(=O)O)ccc12 | inactive | – |
| CC(C)(C)c1ccccc1OCCOCCNCc1ccccc1 | inconclusive: 14.6 µM [cytotoxic, partial curve, poor fit] | – |
| CCCCOc1ccc(C2C(=O)N(C3CCCCC3)CC(=O)N2CC2CCCO2)cc1 (stereo not given) | inactive | – |
| O=C(CN1CCCc2ccccc21)Nc1cccc(S(=O)(=O)N2CCOCC2)c1 | inactive | – |
| CN(C)c1ccc(CNC(=O)C2(C)Cc3c(-c4ccccc4)ccnc3O2)cc1 (stereo not given) | inconclusive: 29.1 µM [cytotoxic, partial curve, poor fit] | – |
| COCCCNC(=S)Nc1ccc(OC(F)F)cc1C | inactive | – |
